Results as given in the supplement of paper PMC10849652.
This is one part of the list.

The chains behind the UniProt entries cited, without tags or fusion partners. Where a name states a change or a piece, a line headed by the entry shows the natural chain unless it says otherwise.
UniProt Q9NRF9: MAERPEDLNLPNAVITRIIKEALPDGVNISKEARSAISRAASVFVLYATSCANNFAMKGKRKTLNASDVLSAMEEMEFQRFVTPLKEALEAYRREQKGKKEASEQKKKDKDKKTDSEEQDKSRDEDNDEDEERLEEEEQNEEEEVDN
UniProt O15318: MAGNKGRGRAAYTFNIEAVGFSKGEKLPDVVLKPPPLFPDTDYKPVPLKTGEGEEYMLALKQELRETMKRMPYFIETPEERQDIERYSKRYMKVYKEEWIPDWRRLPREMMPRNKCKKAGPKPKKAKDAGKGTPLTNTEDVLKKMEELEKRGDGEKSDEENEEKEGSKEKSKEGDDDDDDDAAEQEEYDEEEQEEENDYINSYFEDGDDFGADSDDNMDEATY
UniProt P00491: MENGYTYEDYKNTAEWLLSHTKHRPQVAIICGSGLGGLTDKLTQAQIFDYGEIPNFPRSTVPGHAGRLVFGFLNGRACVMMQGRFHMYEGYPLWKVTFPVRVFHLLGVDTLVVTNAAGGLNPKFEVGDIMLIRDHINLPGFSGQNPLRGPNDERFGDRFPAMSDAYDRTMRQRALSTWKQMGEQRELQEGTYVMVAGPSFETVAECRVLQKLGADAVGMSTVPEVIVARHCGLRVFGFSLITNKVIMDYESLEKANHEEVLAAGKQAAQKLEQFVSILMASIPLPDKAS
UniProt P0CAP2, whole entry, looked up: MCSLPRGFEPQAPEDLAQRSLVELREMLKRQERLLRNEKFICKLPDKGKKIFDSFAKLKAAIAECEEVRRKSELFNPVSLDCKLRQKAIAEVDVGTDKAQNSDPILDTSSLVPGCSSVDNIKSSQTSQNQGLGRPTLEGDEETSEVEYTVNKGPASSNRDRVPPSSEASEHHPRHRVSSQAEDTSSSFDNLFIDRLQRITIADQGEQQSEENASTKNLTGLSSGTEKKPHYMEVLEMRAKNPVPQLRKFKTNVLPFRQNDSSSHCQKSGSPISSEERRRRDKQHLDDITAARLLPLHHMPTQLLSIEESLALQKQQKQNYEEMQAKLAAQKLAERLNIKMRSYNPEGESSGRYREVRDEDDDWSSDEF
UniProt Q15126: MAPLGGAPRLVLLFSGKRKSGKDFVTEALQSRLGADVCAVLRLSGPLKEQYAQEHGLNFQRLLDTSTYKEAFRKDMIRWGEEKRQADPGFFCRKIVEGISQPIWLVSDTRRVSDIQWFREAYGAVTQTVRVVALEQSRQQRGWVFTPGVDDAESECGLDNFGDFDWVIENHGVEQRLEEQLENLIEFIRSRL
UniProt P16435: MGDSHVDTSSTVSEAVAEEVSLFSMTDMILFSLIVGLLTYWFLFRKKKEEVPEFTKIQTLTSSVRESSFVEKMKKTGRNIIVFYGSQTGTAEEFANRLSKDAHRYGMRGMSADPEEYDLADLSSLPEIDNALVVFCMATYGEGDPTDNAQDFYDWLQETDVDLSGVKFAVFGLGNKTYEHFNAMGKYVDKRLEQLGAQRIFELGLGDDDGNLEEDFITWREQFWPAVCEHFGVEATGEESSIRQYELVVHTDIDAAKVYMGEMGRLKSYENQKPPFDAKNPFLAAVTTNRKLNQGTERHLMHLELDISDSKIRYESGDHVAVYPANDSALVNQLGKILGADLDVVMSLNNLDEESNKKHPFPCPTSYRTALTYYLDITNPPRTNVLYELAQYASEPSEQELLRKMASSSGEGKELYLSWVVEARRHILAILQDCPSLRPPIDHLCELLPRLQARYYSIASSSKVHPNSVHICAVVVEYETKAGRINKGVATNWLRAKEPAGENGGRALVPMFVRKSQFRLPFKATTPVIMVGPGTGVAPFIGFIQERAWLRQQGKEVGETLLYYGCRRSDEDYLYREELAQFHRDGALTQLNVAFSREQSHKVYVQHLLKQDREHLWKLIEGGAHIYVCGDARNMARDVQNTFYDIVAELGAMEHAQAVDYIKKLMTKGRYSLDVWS
UniProt Q07864, whole entry, looked up: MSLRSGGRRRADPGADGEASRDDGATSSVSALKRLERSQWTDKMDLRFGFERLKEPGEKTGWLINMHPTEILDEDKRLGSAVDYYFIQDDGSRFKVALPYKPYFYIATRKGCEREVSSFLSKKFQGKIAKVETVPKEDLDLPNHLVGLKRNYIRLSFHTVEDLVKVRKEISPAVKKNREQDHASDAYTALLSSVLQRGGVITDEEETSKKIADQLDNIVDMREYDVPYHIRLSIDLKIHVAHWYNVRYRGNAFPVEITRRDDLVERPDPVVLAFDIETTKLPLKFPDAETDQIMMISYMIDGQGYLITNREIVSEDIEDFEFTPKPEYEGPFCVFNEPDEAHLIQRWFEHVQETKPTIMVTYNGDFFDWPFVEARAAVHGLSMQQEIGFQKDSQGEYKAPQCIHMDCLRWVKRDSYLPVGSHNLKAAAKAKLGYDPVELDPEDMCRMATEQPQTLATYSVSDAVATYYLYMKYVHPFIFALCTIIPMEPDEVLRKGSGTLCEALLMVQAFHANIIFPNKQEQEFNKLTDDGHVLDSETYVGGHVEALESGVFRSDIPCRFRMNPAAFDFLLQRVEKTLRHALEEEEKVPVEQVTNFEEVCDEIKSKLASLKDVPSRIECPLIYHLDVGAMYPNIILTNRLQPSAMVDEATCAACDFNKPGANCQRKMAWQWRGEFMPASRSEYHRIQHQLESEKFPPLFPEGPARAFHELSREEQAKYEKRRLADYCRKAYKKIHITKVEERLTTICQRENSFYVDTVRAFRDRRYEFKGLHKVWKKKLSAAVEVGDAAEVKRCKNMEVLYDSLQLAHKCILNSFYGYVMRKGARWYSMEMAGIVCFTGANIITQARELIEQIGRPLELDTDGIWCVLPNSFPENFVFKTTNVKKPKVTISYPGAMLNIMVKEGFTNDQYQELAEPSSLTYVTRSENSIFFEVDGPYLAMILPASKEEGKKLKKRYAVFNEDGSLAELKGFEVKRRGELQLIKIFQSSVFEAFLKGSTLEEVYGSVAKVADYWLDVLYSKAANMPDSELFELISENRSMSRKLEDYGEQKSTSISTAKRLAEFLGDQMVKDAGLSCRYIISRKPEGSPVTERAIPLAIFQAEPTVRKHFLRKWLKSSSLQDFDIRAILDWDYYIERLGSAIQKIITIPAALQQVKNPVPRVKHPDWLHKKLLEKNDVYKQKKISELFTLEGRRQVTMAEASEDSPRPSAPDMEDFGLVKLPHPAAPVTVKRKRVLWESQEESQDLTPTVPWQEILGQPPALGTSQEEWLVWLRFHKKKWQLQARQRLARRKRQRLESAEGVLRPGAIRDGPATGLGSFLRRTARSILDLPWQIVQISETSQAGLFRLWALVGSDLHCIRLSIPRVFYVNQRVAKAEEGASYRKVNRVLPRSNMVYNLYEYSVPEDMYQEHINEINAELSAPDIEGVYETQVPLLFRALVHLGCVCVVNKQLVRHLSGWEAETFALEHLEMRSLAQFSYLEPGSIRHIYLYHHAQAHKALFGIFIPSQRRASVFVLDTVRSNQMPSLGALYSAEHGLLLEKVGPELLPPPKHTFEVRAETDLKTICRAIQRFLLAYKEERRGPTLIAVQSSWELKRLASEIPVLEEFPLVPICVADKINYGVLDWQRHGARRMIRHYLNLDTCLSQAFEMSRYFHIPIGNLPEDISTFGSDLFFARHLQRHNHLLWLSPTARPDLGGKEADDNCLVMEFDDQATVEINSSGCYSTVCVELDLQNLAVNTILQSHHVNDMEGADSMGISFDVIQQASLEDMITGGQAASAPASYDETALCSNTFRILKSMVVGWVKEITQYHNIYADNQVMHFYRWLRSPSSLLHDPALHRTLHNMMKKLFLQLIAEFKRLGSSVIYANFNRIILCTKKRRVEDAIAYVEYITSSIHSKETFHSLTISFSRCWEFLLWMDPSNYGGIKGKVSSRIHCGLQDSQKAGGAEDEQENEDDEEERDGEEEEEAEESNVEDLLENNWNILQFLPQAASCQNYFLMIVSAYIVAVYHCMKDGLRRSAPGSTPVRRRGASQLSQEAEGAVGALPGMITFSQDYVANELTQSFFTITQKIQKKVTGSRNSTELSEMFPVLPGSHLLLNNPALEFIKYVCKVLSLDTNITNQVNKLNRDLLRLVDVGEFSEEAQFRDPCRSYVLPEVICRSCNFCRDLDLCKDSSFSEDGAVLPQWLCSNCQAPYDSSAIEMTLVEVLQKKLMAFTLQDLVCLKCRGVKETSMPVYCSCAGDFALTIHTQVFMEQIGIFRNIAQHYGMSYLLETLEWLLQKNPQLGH
UniProt P28340: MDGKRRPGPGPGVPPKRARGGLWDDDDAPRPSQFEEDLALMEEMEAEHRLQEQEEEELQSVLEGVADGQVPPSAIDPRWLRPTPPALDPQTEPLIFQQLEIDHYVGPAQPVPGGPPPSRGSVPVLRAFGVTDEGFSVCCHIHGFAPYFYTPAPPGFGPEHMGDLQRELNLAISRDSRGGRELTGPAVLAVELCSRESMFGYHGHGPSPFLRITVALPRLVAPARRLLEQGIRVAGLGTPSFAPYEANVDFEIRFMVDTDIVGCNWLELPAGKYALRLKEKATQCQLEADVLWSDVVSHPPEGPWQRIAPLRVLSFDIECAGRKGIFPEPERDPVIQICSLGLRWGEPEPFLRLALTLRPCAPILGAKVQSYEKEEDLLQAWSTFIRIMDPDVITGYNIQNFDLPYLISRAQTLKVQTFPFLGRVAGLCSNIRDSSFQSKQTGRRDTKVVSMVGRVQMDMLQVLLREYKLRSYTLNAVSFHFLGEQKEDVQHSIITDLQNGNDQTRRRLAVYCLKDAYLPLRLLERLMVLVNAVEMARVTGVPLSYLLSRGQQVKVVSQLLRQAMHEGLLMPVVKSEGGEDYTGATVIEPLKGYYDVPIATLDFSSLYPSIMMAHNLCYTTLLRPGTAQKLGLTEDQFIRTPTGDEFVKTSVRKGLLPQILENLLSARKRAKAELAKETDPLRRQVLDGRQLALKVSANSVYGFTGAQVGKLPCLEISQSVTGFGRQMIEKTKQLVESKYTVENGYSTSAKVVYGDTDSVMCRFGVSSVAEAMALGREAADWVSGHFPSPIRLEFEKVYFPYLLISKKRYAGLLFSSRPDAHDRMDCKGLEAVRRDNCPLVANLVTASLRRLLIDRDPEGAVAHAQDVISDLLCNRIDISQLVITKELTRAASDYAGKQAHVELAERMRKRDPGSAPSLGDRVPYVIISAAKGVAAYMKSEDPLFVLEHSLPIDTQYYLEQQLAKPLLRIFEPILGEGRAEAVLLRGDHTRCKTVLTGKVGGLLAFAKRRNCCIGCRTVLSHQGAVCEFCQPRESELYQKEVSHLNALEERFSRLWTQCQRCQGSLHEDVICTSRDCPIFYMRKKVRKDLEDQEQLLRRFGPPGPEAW
UniProt O15305: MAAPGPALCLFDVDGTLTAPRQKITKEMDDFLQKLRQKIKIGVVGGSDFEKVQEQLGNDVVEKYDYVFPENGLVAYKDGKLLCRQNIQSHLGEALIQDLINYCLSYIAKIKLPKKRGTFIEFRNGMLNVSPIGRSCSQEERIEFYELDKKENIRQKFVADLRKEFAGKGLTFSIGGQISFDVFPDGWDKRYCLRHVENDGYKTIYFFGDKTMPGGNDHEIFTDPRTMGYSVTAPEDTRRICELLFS
UniProt Q9Y535: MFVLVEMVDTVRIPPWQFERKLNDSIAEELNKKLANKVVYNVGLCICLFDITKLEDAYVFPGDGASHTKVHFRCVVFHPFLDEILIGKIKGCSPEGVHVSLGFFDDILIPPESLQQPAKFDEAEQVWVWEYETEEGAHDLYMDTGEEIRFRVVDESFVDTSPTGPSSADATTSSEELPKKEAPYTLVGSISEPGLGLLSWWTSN
UniProt Q9H2U2: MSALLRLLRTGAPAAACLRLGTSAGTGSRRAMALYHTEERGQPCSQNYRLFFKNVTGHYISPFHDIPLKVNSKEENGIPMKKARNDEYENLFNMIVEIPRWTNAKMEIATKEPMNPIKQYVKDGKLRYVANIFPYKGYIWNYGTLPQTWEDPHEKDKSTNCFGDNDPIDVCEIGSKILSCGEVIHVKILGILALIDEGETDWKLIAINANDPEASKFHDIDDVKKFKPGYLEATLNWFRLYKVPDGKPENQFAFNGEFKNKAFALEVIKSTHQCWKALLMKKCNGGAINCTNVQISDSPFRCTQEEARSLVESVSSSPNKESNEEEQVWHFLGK
UniProt Q9NW61: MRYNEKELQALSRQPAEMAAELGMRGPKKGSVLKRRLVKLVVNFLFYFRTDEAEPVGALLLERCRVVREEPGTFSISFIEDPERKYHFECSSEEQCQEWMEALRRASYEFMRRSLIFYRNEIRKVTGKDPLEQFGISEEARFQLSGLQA
UniProt Q08752, whole entry, looked up: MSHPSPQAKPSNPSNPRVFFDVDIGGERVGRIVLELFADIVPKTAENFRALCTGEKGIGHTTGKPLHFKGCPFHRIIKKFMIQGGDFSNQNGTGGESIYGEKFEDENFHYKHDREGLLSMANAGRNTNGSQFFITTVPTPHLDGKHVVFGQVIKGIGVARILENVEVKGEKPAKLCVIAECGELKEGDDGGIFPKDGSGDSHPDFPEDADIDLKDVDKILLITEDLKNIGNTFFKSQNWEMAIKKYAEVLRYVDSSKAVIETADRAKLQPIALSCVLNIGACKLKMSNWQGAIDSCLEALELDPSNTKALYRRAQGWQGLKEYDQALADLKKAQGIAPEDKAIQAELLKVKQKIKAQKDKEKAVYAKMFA

How the values were obtained:
Assay in all cases: log2 fold change, soluble protein after heating vs DMSO (PISA); higher = thermal stabilisation; K562 lysate, 10 uM; active = over 0.2 and 3.5 SD of the protein, either way, in both replicates (recomputed)
alvocidib = compound: CN1CC[C@H](c2c(O)cc(O)c3c(=O)cc(-c4ccccc4Cl)oc23)[C@H](O)C1 [alvocidib]
Method in brief: (§1)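 Soluble protein was defined as the supernatant remaining after 21,000xg for 90 min, following pooling of heated aliquots and adjustment to 0.5% NP-40 at 4°C. Before that, crude K562 extract at 1 mg/mL protein in PBS pH 7.4 with 1 mM MgCl2 was treated with 10 μM compound for 30 min and heated for 3 min across 48°C-58°C. Quantification used TMTpro 16plex LC-MS/MS with channel sums equalised, and values are log-two fold changes in thermal stability relative to solvent controls from duplicates.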

Tubastatin A = compound: CN1CCc2c(c3ccccc3n2Cc2ccc(C(=O)NO)cc2)C1 [Tubastatin A]
Method in brief: as §1

[1] = compound: CNC(=O)C1=CC=CC=C1NC2=NC(=NC=C2Cl)NC3=C(C=C(C=C3)N4CCOCC4)OC
Method in brief: as §1

defactinib = compound: CNC(=O)c1ccc(Nc2ncc(C(F)(F)F)c(NCc3nccnc3N(C)S(C)(=O)=O)n2)cc1 [defactinib]
Method in brief: as §1

[2] = compound: CNc1nc(-c2ccc3c(N)n[nH]c3c2)cc(N2C[C@@H](C(=O)NC3CCCCC3)CC[C@H]2C)n1
Method in brief: as §1

encorafenib = compound: COC(=O)N[C@@H](C)CNc1nccc(-c2cn(C(C)C)nc2-c2cc(Cl)cc(NS(C)(=O)=O)c2F)n1 [encorafenib]
Method in brief: as §1

[3] = compound: COC(=O)[C@H](CCSC)NC(=O)C1=C(C=C(C=C1)NC[C@H](CS)N)C2=CC=CC=C2
Method in brief: as §1

alisertib = compound: COc1cc(Nc2ncc3c(n2)-c2ccc(Cl)cc2C(c2c(F)cccc2OC)=NC3)ccc1C(=O)O [alisertib]
Method in brief: as §1

[4] = compound: COc1cc2nc(-c3cc(F)ccc3O)nc(N[C@@H]3CNC[C@H]3C(C)(C)O)c2cc1OC
Method in brief: as §1

gefitinib = compound: COc1cc2ncnc(Nc3ccc(F)c(Cl)c3)c2cc1OCCCN1CCOCC1 [gefitinib]
Method in brief: as §1

Row | Target | log2 fold change (alvocidib) | log2 fold change (Tubastatin A) | log2 fold change [1] | log2 fold change (defactinib) | log2 fold change [2] | log2 fold change (encorafenib) | log2 fold change [3] | log2 fold change (alisertib) | log2 fold change [4] | log2 fold change (gefitinib)
1 | POLE3 (UniProt Q9NRF9) | inactive: -0.051 | inactive: 0.047 | inactive: -0.002 | inactive: 0.025 | inactive: 0.044 | inactive: -0.018 | inactive: -0.071 | inactive: 0.02 | inactive: 0.02 | inactive: 0.001
2 | PLK1 (UniProt P53350) | inactive: 0.059 | inactive: -0.108 | active: -0.347 | inactive: -0.268 | inactive: 0.006 | inactive: 0.097 | inactive: -0.034 | inactive: -0.003 | inactive: -0.023 | inactive: 0.003
3 | PPFIA1 (UniProt Q13136) | inactive: -0.002 | inactive: -0.024 | inactive: -0.016 | inactive: 0.003 | inactive: -0.005 | inactive: 0.024 | inactive: -0.006 | inactive: -0.003 | inactive: -0.03 | inactive: -0.013
4 | POLR3G (UniProt O15318) | inactive: -0.028 | inactive: 0.036 | inactive: -0.013 | inactive: 0.055 | inactive: -0.006 | inactive: 0.031 | inactive: -0.089 | inactive: 0.02 | inactive: 0.018 | inactive: -0.04
5 | PLG (UniProt P00747) | inactive: -0.032 | inactive: 0.094 | inactive: 0.021 | inactive: -0.017 | inactive: -0.03 | inactive: 0.054 | inactive: 0.04 | inactive: 0.05 | inactive: 0.088 | inactive: -0.118
6 | PNKD (UniProt Q8N490) | inactive: 0.062 | inactive: 0.054 | inactive: 0.017 | inactive: 0.001 | inactive: 0.038 | inactive: 0.113 | inactive: 0.037 | inactive: -0.008 | inactive: -0.006 | inactive: 0.005
7 | POLE2 (UniProt P56282) | inactive: 0 | inactive: -0.033 | inactive: 0.007 | inactive: 0.026 | inactive: -0.015 | inactive: 0.013 | inactive: -0.038 | inactive: -0.042 | inactive: 0.174 | inactive: -0.066
8 | POLR2B (UniProt P30876) | inactive: -0.008 | inactive: -0.092 | inactive: 0.057 | inactive: 0.004 | inactive: -0.026 | inactive: 0.022 | inactive: 0.121 | inactive: 0.002 | inactive: -0.018 | inactive: 0.012
9 | POMGNT1 isoform 2 (UniProt Q8WZA1) | inactive: -0.012 | inactive: -0.061 | inactive: 0.043 | inactive: -0.157 | inactive: 0.163 | inactive: -0.072 | inactive: -0.031 | inactive: 0.051 | inactive: -0.005 | inactive: 0.048
10 | PNP (UniProt P00491) | inactive: -0.005 | inactive: 0.012 | inactive: -0.016 | inactive: 0.002 | inactive: -0.024 | inactive: -0.018 | inactive: -0.056 | inactive: -0.015 | inactive: -0.012 | inactive: 0.019
11 | PODXL (UniProt O00592) | inactive: -0.052 | – | – | – | – | – | – | – | – | –
12 | POLR2M (UniProt P0CAP2) | inactive: -0.002 | inactive: 0.031 | inactive: 0.021 | inactive: 0.037 | inactive: 0.035 | active: 0.33 | inactive: -0.047 | inactive: -0.011 | inactive: 0.019 | inactive: 0.027
13 | POFUT1 (UniProt Q9H488) | inactive: 0.003 | inactive: 0.039 | inactive: -0.006 | inactive: -0.01 | inactive: -0.022 | inactive: -0.004 | inactive: -0.025 | inactive: 0.023 | inactive: -0.009 | inactive: -0.002
14 | POLRMT (UniProt O00411) | inactive: 0.025 | inactive: -0.13 | inactive: 0.002 | inactive: -0.045 | inactive: -0.037 | inactive: 0.069 | inactive: 0.203 | inactive: -0.054 | inactive: 0 | inactive: -0.038
15 | PMVK (UniProt Q15126) | inactive: -0.03 | inactive: -0.087 | inactive: -0.003 | inactive: -0.051 | inactive: -0.108 | inactive: 0.001 | inactive: -0.07 | inactive: 0.018 | inactive: -0.019 | inactive: -0.003
16 | POR (UniProt P16435) | inactive: -0.031 | inactive: 0.071 | inactive: -0.01 | inactive: 0.013 | inactive: 0.015 | inactive: 0.017 | inactive: -0.011 | inactive: 0.017 | inactive: 0.031 | inactive: -0.006

Individual results from the list:
POR (UniProt P16435) – log2 fold change (defactinib): inactive: 0.013
POLE3 (UniProt Q9NRF9) – log2 fold change (alisertib): inactive: 0.02

Continuation.

Row | Target | log2 fold change (alvocidib) | log2 fold change (Tubastatin A) | log2 fold change [1] | log2 fold change (defactinib) | log2 fold change [2] | log2 fold change (encorafenib) | log2 fold change [3] | log2 fold change (alisertib) | log2 fold change [4] | log2 fold change (gefitinib)
17 | POLE (UniProt Q07864) | inactive: 0.003 | inactive: -0.107 | inactive: 0.06 | inactive: 0.02 | inactive: -0.035 | inactive: 0.07 | inactive: 0.045 | inactive: -0.002 | inactive: -0.009 | inactive: -0.051
18 | POLD1 (UniProt P28340) | inactive: 0.012 | inactive: -0.075 | inactive: 0.035 | inactive: 0.027 | inactive: 0.011 | inactive: 0.008 | inactive: 0.074 | inactive: 0.007 | inactive: 0.007 | inactive: -0.036
19 | POLR2L (UniProt P62875) | inactive: 0.014 | inactive: -0.024 | inactive: 0.065 | inactive: 0.065 | inactive: 0.001 | inactive: -0.179 | inactive: 0.152 | inactive: -0.003 | inactive: 0.004 | inactive: -0.1
20 | PMM2 (UniProt O15305) | inactive: -0.013 | inactive: 0.018 | inactive: -0.03 | inactive: -0.012 | inactive: -0.091 | inactive: 0.03 | inactive: -0.027 | inactive: 0.023 | inactive: -0.012 | inactive: 0.019
21 | POLR3H (UniProt Q9Y535) | inactive: -0.084 | inactive: -0.051 | inactive: -0.093 | inactive: -0.052 | inactive: -0.066 | inactive: -0.013 | inactive: -0.027 | inactive: -0.244 | inactive: 0.038 | inactive: -0.117
22 | PON2 (UniProt Q15165) | inactive: 0.082 | inactive: -0.004 | inactive: -0.023 | inactive: 0.021 | inactive: -0.008 | inactive: 0.063 | inactive: -0.027 | inactive: -0.052 | inactive: 0.06 | inactive: 0.146
23 | POTEI (UniProt P0CG38) | inactive: 0.023 | inactive: -0.012 | inactive: 0.029 | inactive: 0.004 | inactive: 0.049 | inactive: -0.056 | inactive: 0.033 | inactive: -0.004 | inactive: -0.004 | inactive: -0.016
24 | POMK (UniProt Q9H5K3) | inactive: 0.013 | inactive: -0.032 | inactive: 0.014 | inactive: 0.082 | inactive: 0.012 | inactive: 0.029 | inactive: -0.095 | – | – | –
25 | POLR1C (UniProt O15160) | inactive: 0 | inactive: -0.083 | inactive: -0.082 | inactive: -0.007 | inactive: -0.017 | inactive: 0.013 | inactive: 0.07 | inactive: -0.015 | inactive: 0.014 | inactive: 0.005
26 | PPA2 (UniProt Q9H2U2) | inactive: -0.002 | inactive: 0.031 | inactive: -0.006 | inactive: -0.004 | inactive: 0.015 | inactive: -0.014 | inactive: -0.004 | inactive: 0.079 | inactive: 0 | inactive: 0.02
27 | POLA2 (UniProt Q14181) | inactive: 0.009 | inactive: -0.029 | inactive: -0.021 | inactive: 0.001 | inactive: 0.036 | inactive: 0.046 | inactive: 0.007 | inactive: 0 | inactive: 0.016 | inactive: -0.001
28 | PLEKHJ1 (UniProt Q9NW61) | inactive: 0.105 | inactive: 0.102 | inactive: -0.076 | – | – | – | – | – | – | –
29 | PPID (UniProt Q08752) | inactive: 0.04 | inactive: -0.038 | inactive: 0.022 | inactive: -0.006 | inactive: -0.024 | inactive: -0.016 | inactive: 0.118 | inactive: -0.003 | inactive: -0.007 | inactive: -0.01
30 | PPIB (UniProt P23284) | inactive: 0.018 | inactive: 0.021 | inactive: -0.008 | inactive: -0.018 | inactive: 0.021 | inactive: 0 | inactive: -0.003 | inactive: 0 | inactive: 0.029 | inactive: -0.008
31 | POLR1B isoform 3 (UniProt Q9H9Y6) | inactive: -0.035 | inactive: -0.076 | inactive: -0.025 | inactive: 0.02 | inactive: -0.011 | inactive: -0.008 | inactive: 0.185 | inactive: -0.038 | inactive: 0.005 | inactive: 0.018
